From publication PMC11898703 come the findings set out here.

Sequences of proteins named here, by UniProt entry; tags and fusion partners are left off.
UniProt Q18CX4: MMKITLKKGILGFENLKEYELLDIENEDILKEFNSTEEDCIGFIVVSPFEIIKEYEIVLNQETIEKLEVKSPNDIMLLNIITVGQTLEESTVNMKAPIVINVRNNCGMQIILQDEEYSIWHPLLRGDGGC
UniProt Q18CX3: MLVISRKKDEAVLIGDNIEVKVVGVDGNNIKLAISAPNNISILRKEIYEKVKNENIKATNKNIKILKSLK

This assay concerns the target FliW-T25 (Clostridioides difficile) (UniProt Q18CX4). The experiment in a line: two-hybrid; bacterial two-hybrid (BACTH) in E. coli BTH101; T25 and T18 fusions co-transformed; cultures dotted on LB-X-Gal-IPTG indicator plates, blue colonies positive, white colonies no interaction.

No constants are given. Whether binding was seen depends on the method and setting. Some binding calls cover weakened binding; strength is not graded here.

Regarding CsrA-T18 (from UniProt Q18CX3 1-70), the binding result was “binds”.
